The numbers were not newly measured in US20020076728A1, “Engineering affinity ligands for macromolecules” (priority 1997, published 2002), which cites them from elsewhere.

The conditions of the series: side-chain ionizable group of the amino acid type in proteins; cited from earlier work.

Each structure is given as a SMILES string.

Regarding `N[C@@H](Cc1ccc(O)cc1)C(=O)O` [Tyr], the pKa range is reported as 10.0-10.3.
